Results from patent US10793915B2, “Context dependent diagnostics test for guiding cancer treatment” (Eutropics Pharmaceuticals, Inc., priority 2015, dated 2020).
For at least one compound, name, drawing or mass did not settle the structure.

Test system: AML patients
Assay: Response of AML patients to decitabine as a single agent, by FLT3 mutational status
Type: in vivo, human
Conditions: AML patients having FLT3 mutations

How did the response to decitabine turn out when `Nc1ncn([C@H]2C[C@H](O)[C@@H](CO)O2)c(=O)n1` [decitabine] was run?
Its response to decitabine is “non-responsive”.
